Reference: patent publication US7659251B2, “Ligand for G-protein coupled receptor FPRL2” (priority 2004, dated 2010)
At least one peptide structure holds a part that was inferred or is arguable (an end, a ring closure or a residue). Where no end group is shown, it is not given here.

What was measured:
[1] = biological target: T1, FPR (Homo sapiens, UniProt P21462, E346A/V101L); experiment: Aequorin-based assay on CHO-K1 cells expressing FPR; assay type: cell-based; settings: −Log of EC50 in Mol/L, mean ± s.e.m.
T1 construct: expressed in transfected cells; host or cells: CHO-K1 (with or without Galpha16 and apoaequorin)
T1 sequence (P21462 1-350 V101L/E346A): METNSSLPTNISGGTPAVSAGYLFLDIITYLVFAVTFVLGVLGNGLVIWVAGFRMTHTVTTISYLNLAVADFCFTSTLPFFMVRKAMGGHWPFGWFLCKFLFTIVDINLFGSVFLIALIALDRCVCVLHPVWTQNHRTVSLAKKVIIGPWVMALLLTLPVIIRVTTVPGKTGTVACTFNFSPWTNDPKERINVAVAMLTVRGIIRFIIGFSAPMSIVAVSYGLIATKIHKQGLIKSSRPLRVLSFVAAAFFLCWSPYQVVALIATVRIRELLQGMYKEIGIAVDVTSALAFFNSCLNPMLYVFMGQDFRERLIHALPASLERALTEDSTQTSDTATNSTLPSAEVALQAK
Text: The human coding sequences (accession numbers AC005946, M84562 and M60626, respectively) were amplified by PCR from human genomic DNA, cloned into the pcDNA3 (Invitrogen) and pEFIN3 (Euroscreen) vectors and sequenced. The pEFIN3 constructs were transfected, using Fugene 6, into CHO-K1 cells, expressing or not Gα16 and apoaequorin. G418-resistant clones were characterized for receptor expression by Northern blotting. […] Results were expressed as relative light units (RLU) or as the percentage of the response to 20 μM ATP.

[2] = biological target: T1, FPR; experiment: cAMP accumulation assay (HTRF, forskolin) on FPR-expressing CHO-K1 cells; assay type: cell-based; settings: −Log of EC50 in Mol/L, mean ± s.e.m.
Experimental: The cAMP concentrations were determined using a homogeneous time-resolved fluorescence (HTRF) kit (Cis Bio International). Briefly, cells were detached, resuspended in Krebs Ringer Hepes buffer containing 1 mM 3-Isobutyl-1-methylxanthine, and submitted to 10 μM forskolin, alone or together with increasing concentrations of agonists for 30 min at room temperature. The reaction was stopped by the successive addition of cAMP-XL665 and anti-cAMP cryptate diluted in lysis buffer. The plates were incubated for 60 min at room temperature and read on a Rubystar fluorimeter (BMG). […] A calibration curve was obtained by plotting delta F % versus cAMP concentrations. […] The aequorin-based assay was performed with or without overnight pretreatment with 100 ng/ml Pertussis toxin. […] For FPRL2 polymorphism analysis, HEK cells were transiently transfected with empty and wild-type or Asp338H is FPRL2-containing pcdna vector using calcium phosphate method. Cells were recovered 48 hours later and used for FACS or cAMP experiments.

[3] = biological target: T2, FPRL2 (Homo sapiens, UniProt P25089); experiment: Saturation and competition binding on FPRL2-expressing CHO-K1 cells, tracer F2L-[125I]Tyr; design: expressed in transfected cells; host or cells: CHO-K1; settings: up to concentrations of 3 μM; data not shown
T2 sequence (P25089 1-353): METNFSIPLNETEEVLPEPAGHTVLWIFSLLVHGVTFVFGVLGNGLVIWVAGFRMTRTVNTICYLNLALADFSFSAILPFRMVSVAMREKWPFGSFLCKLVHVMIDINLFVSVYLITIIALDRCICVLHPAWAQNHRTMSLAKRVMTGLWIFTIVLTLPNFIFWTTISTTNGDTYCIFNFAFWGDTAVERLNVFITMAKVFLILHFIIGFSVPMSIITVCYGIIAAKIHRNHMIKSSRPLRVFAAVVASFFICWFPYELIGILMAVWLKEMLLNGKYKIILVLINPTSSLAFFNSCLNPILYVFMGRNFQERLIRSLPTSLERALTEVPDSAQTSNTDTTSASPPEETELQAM
Experimental: FPRL2, FPRL1 and FPR-expressing CHO-K1 cells were plated in 24 wells plates (200,000 cells per well for FPRL2, and 100,000 cells per well for the two other receptors). The next day, the cells were washed twice with a KRH buffer containing 280 mM saccharose and, for FPRL1 and FPR, 0.1 % NaN3. […] Cells were washed twice with ice cold buffer, total radioactivity was recovered with 1 M […] and counted in a gamma counter for […]

How did the “pEC50 (sequorin assay)” value [1] turn out when “MLWRRKIGPQMTLSHAAG [SHAAG, reference compound]” was run?
Its value is less than 6.

And the “pEC50 (cAMP assay)” value [2]?
The value was less than 6.

What about the “competition for FPRL2 binding” value [3] of the same sequence?
Its value is “did not compete”.
